Assay results from US11535597B2, “Photoreactive ligands and uses thereof” (The Scripps Research Institute, priority 2017, dated 2022).

Tested on: proteins in HEK293T cells
Experiment: MS-based mapping of FFF probe-modified peptides (isoTOP, sites of labeling)
Assay type: binding, human
Experimental: Preparation and analysis was adapted from methods previously reported. In brief, for global mapping of fragment probe-modified peptides, separate 10 cm dishes of cells were treated with probes (200-250 μM) in 3.0 mL of DMEM (serum-free) and (if applicable) competitor ligands, proteomes harvested and subjected to click chemistry conditions with either light or heavy isotopically labeled biotin-TEV-azide (10 μL of 5 mM stocks in DMSO, final concentration=100 μM), TCEP, ligand and CuSO4 as detailed above. The samples were allowed to react for 1 h at which point the samples were centrifuged (16,000 g, 5 min, 4° C.). The resulting pellets were sonicated in ice-cold methanol (500 μL) and the resuspended light- and heavy-labeled samples were then combined and centrifuged (16,000 g, 5 min, 4° C.). The pellets were then solubilized in PBS containing 1.2% SDS (1 mL) with sonication and heating (5 min, 95° C.). Samples were transferred to falcon tubes containing DPBS (5 mL), to which a 100 μL of streptavidin-agarose beads slurry was added. After incubation, the beads (3 hr) were pelleted by centrifugation (1,400 g, 3 min) and were washed (2×10 mL PBS and 2×10 mL water). The beads were transferred to eppendorf tubes with 1 mL DPBS, centrifuged (1,400 g, 3 min), and resuspended in PBS containing 6 M urea. To this was added 10 mM DTT (25 μL of a 200 mM stock in water) and the beads were incubated at 65° C. for 15 mins. 20 mM iodoacetamide (25 μL of a 400 mM stock in water) was then added and allowed to react at 37° C. for 30 mins with shaking. The bead mixture was diluted with 900 μL PBS, pelleted by centrifugation (1,400 g, 3 min), and resuspended in 200 μL 2M urea (DPBS) containing trypsin and CaCl2 as described above. The beads were separated from the digest by centrifugation (1,000 g, 1 min), washed (2×1 mL PBS and 2×1 mL water) and then transferred to fresh eppendorfs with 1 mL water. The washed beads were washed once further in 150 μL TEV buffer (50 mM Tris, pH 8, 0.5 mM EDTA, 1 mM DTT) by centrifugation (1,400 g, 3 min) and the resuspended in 150 μL TEV buffer. 5 μL TEV protease (80 μM) was added and the reactions were rotated overnight at 29° C. The TEV digest was separated from the beads by centrifugation (1,400 g, 3 min) and the beads were washed once with water (100 μL). The samples were then acidified to a final concentration of 5% (v/v) formic acid and stored at −80° C. prior to analysis.
The resulting probe-modified peptides were collected for MS analysis, which was performed as described above with differences in the salt bumps applied in the chromatographic gradients which in this case were 0%, 30%, 60%, 90% and 100% NH4OAc (500 μM). The protein identification searches of the MS data were performed with the following changes applied to identify the peptides modified with the corresponding fragment probe and the cleaved TEV tag. All amino acids were considered as possible residues for modification. To facilitate the computational searches, sets of up to 3 amino acids were searched using ProLuCID and filtered with DTASelect as described above. […] The isoTOP ratios for probe labeled peptides were quantified using the in-house software CIMAGE.
For each protein in the site-of-labeling dataset, the UniProtKB accession number was used to map and collect relevant structures from the RCSB Protein Data Bank (PDB) fulfilling the following criteria: structures determined by X-ray crystallography, wild-type protein, Homo sapiens as the sole source organism. […] Fpocket 2.0 was used to detect potential binding pockets for the resultant structures with all parameters set at recommended default. Pockets with volume less than 500 Å^3 were removed from output prior to further analysis. Residues surrounding fpocket predicted binding pockets for each protein were collected to determine the number of residues overlapping with isoTOP peptides.

[1] = residues of HSD17B10 3-hydroxyacyl-CoA dehydrogenase type-2 (Q99714) labeled by probe
[2] = residues of HSD17B4 Peroxisomal multifunctional enzyme type 2 (P51659) labeled by probe

C#CCCC1(CCC(=O)NC2N=C(c3ccccc3)c3ccccc3NC2=O)N=N1 (stereo not shown) [probe 2, 3-(3-(But-3-yn-1-yl)-3H-diazirin-3-yl)-N-(2-oxo-5-phenyl-2,3-dihydro-1H-benzo[e][1,4]diazepin-3-yl)propanamide]
Labeled Peptide (residues of HNRNPL Heterogeneous nuclear ribonucleoprotein L (P14866) labeled by probe): 399-411 | Labeled Peptide [1]: 42672

C#CCCC1(CCC(=O)Nc2ccc3oc(=O)ccc3c2)N=N1 [probe 3, 3-(3-(But-3-yn-1-yl)-3H-diazirin-3-yl)-N-(2-oxo-2H-chromen-6-yl)propanamide]
Labeled Peptide [2]: 169-183 | Labeled Peptide [1]: 42672 | Labeled Peptide (residues of HSPD1 60 kDA heat shock protein, mitochondrial (P10809) labeled by probe): 345-352

C#CCCC1(CCC(=O)NCc2ccc3sccc3c2)N=N1 [probe 4, N-(Benzo[b]thiophen-5-ylmethyl)-3-(3-(but-3-yn-1-yl)-3H-diazirin-3-yl)propanamide]
Labeled Peptide (residues of IDE Insulin-degrading enzyme (P14735) labeled by probe): 312-324 | Labeled Peptide (residues of IPO4 Importin-4 (Q8TEX9) labeled by probe): 163-182 | Labeled Peptide (residues of LDHB L-lactate dehydrogenase B chain (P07195) labeled by probe): 234-244

C#CCCC1(CCC(=O)Nc2ccc(C3CCNCC3)cc2)N=N1 [probe 9, 3-(3-(But-3-yn-1-yl)-3H-diazirin-3-yl)-N-(4-(piperidin-4-yl)phenyl)propanamide]
Labeled Peptide (residues of HSP90B1 Endoplasmin (P14625) labeled by probe): 117-135 | Labeled Peptide (residues of IFI30 Gamma-interferon-inducible lysosomal thiol reductase (P13284) labeled by probe): 129-157 | Labeled Peptide (residues of LDHA L-lactate dehydrogenase A chain (P00338) labeled by probe): 43-57

C#CCCC1(CCC(=O)N2CCCCC2Cc2ccccc2)N=N1 (stereo not shown) [probe 13, 1-(2-Benzylpiperidin-1-yl)-3-(3-(but-3-yn-1-yl)-3H-diazirin-3-yl)propan-1-one]
Labeled Peptide (residues of HSP90AA1 Heat shock protein HSP 90-alpha (P07900) labeled by probe): 368-386 and 300-314 and 514-534 | Labeled Peptide (residues of ILVBL Acetolactate synthase-like protein (AIL0T0) labeled by probe): 557-577 | Labeled Peptide (residues of IMPDH2 Inosine-5-monophosphate dehydrogenase 2 (P12268) labeled by probe): 110-124 | Labeled Peptide (residues of KPNA2 Importin subunit alpha-2 (P52292) labeled by probe): 301-315 | Labeled Peptide (residues of LARS Leucine--tRNA ligase, cytoplasmic (Q9P2J5) labeled by probe): 1007-1017

C#CCCC1(CCC(=O)NC23CC4CC(CC(C4)C2)C3)N=N1 [probe 14, N-((3s,5s,7s)-Adamantan-1-yl)-3-(3-(but-3-yn-1-yl)-3H-diazirin-3-yl)propanamide]
Labeled Peptide [2]: 385-403 and 622-633 | Labeled Peptide (residues of IPO9 Importin-9 (Q96P70) labeled by probe): 49-74 | Labeled Peptide (residues of IRS4 Insulin receptor substrate 4 (O14654) labeled by probe): 256-267

“And” between values parts separate entries of the source, which are not always exact repeats. Equal values may be shown once.
